Experimental data taken from article doi:10.1101/2023.07.10.548302.

Amino acid sequences for entries named in this document (tags omitted).
UniProt Q27331: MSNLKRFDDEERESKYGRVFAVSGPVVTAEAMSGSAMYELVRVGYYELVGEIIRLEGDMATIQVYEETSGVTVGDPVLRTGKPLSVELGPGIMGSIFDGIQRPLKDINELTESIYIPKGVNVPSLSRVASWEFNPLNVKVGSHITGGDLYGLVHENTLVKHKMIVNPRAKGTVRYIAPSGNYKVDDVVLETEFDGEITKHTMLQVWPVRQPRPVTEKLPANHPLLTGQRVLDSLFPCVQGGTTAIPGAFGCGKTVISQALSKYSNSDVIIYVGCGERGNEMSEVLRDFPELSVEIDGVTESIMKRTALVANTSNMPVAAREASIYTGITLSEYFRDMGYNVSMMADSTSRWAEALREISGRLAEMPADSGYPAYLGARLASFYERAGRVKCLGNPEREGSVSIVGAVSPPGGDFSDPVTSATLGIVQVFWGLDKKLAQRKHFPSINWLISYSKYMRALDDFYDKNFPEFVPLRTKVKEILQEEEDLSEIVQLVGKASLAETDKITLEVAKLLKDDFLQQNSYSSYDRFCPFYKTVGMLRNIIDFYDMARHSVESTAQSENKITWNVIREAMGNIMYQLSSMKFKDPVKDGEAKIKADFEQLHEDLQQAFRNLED

T1: Vap33-YFP (endogenously YFP-tagged Vap33) (Drosophila (endogenous in embryos)) (UniProt Q9W4N8)
T1 sequence: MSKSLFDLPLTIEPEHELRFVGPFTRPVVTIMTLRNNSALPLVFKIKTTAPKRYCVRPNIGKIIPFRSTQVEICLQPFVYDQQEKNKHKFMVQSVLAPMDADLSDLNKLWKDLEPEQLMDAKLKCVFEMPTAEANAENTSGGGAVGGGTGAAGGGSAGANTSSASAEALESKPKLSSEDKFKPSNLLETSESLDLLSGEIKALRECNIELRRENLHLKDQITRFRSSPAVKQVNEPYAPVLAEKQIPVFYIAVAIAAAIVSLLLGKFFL

B1: Git (G protein-coupled receptor kinase interacting ArfGAP), endogenous in embryos (protein, UniProt Q95RG8 1-731)
chain: MCFASSIIEAHRKLFIAPPDLDHSDPATPTISTRSKMPRGKSRLQTEVCGDCGAGDPSWASINRGILLCADCCSVHRSLGRHISIVKSLRQGNWEPSVLNFVNSLNAHGANSVWEHHLLDGSTNSTGGKHVPRWRKPTPKDALHPTKSDFIKAKHVNLTFVLKPSLQDDDDGNGSAGCLEQELSRQLHASVRTSNLETSLRFLVQGADPNYYHEDKLSTPLHMAAKFGQASQIEMLLIYGADVNALDGNGMTPLELARANNHNTIAERLLDAMYDVTDRIITFLGGKKPDHASGRHMIIPDANGADISEQLKIARGKLQLVPNKMFEELVMDLYDEVDRRECEAIWSTSTLNADHATVPFLPANPFLSATRNQGRQKLARFNRAEFTGLLTDVLVDAMRRQNMANLRPMDAPVAGHQSLQSLPYANNSMLLGSFEQGGHDPNLSDDEPIYDPVASDDDYAPVPPMAQQAIVHTPPRSANSHNEMETLRKQLNDYKSEINQLKNVVQMLSSENTQLKSKFSSASNNSVYDEPLRIDLSLSSPDTEHEPLSLPEGGTANGESGSSNDSSNQSTIKRPASMYERRLVPNVAKGNTDIRNTTSMYQMAGDGKPFGEEVKVRSDLVTRRLKELIRAMQPVPEDQKQSIAPHGELIRSAVTDLIALYANLPPNASDPSRETLKLLTRQNILIQHECENLQKAIEADDKQAIQKNTLEVRDCAFHIASAIKTLVLQFY

Biological target: T1, Vap33-YFP (endogenously YFP-tagged Vap33) (Drosophila (endogenous in embryos))
Assay: affinity purification with mass spectrometry

Molecule | binding
Vha68-2 (V-ATPase component) (from UniProt Q27331 1-614) | binds
B1 | binds

No constants are given. Whether binding was seen depends on the method and setting. In cells and extracts the contact can be indirect. These calls come from enrichment with a bait or labelling near it, and not all partners need be listed. Sequences can lack the tags named with a protein.
